Source: PubChem BioAssay AID540276 (National Center for Advancing Translational Sciences (NCATS), 2011)
The whole screen tested about 300,000 compounds, of which about 5,400 (1.8%) were called active. Inconclusive means that the source gave no clear call. Such entries were picked first, then a sample of the others. The call rests on the fitted dose curve; tested in HEK293 cells. Where the call is inconclusive, the potency comes from a doubtful curve fit.
On the % scale 0 is the no-effect control and ±100 the full control effect; potency means the concentration at half of the fitted maximal effect.

Test: qHTS for inhibitors of binding or entry into cells for Marburg Virus
Conditions: Marburg virus pseudotyped entry inhibition, cell reporter; activity change, negative = inhibition: at 37.8 µM (top of the series) unless noted
In the case of `Cc1cc(NC(=O)NCc2ccccc2)c(=O)n(Cc2ccc(F)cc2)c1`, the Potency is reported as inconclusive: 1.58 µM [inhibitor, full curve]. In the case of `CCOC(=O)c1[nH]c2cc(OC)c(OC)cc2c1NC(=O)CN(C)C1CCCCC1`, the Potency is reported as inconclusive: 14.6 µM [inhibitor, partial curve, poor fit]. With `COc1ccc(CN2CCN(Cc3ccccc3C(F)(F)F)CC2)c(OC)c1` the Potency was active: 11.2 µM. In the case of `COc1ccc(C(=O)N2N=C(c3ccc(NS(C)(=O)=O)cc3)CC2c2cccs2)cc1` (configuration not stated), the Potency is reported as inconclusive: 7.94 µM [inhibitor, partial curve, poor fit]. For `CCOc1ccc(C2c3c(oc4cc(C)c(C)cc4c3=O)C(=O)N2CCCN2CCOCC2)cc1` (configuration not stated), the Potency was “inactive”. In the case of `CCN(CC)S(=O)(=O)c1ccc(N2CCCC2)c(NC(=O)c2ccc([N+](=O)[O-])o2)c1`, the Potency is reported as inconclusive: 35.5 µM [inhibitor, single point]. In the case of `Cc1ccnc(NC(=S)NC(=O)c2cccs2)c1`, the Potency is reported as inconclusive: 0.411 µM [activator, partial curve, poor fit]. With `CCNC(=O)OCc1cn(-c2ccccc2)nn1` the activity change, negative = inhibition was inconclusive: 9.72% [activator] [at 46.1 µM]. With `Cc1onc(-c2c(Cl)cccc2Cl)c1C(=O)Nc1nccs1` the Potency was inconclusive: 2.51 µM [inhibitor, full curve]. In the case of `CCCCN(CC)CCCNC(=O)Cn1ncc2c3ccccc3n(Cc3ccccc3F)c2c1=O`, the Potency is reported as inconclusive: 28.2 µM [inhibitor, partial curve, poor fit]. In the case of `COc1ccc(Cl)cc1N1Cc2ccccc2C1`, the Potency is reported as “inactive”. In the case of `Cc1ccc2nsnc2c1S(=O)(=O)N1CCN(CCc2ccccc2)CC1`, the Potency is reported as “inactive”. In the case of `CC(=NCCN1CCCCC1)c1c(O)n(-c2ccccc2)c(=O)[nH]c1=O`, the Potency is reported as inconclusive: 31.6 µM [activator, single point]. With `O=[N+]([O-])c1cccnc1N1CCN(Cc2ccc3c(c2)OCO3)CC1` the Potency was “inactive”. For `CCOC(=O)C1CCN(CC(O)COc2ccc(C(C)(C)C)cc2)CC1` (configuration not stated), the Potency was inconclusive: 22.4 µM [inhibitor, single point]. For `COc1ccc(C2=C(SC)CC2=NC(C)(C)C)cc1`, the Potency was inconclusive: 0.316 µM [inhibitor, partial curve, poor fit]. In the case of `CN=C1S/C(=C\c2c(OC)cc(OC)cc2OC)C(=O)N1C`, the Potency is reported as inconclusive: 3.16 µM [inhibitor, full curve, poor fit]. With `CCOC(=O)c1sc(NC(=O)CCCCCN2C(=O)c3cccc4cccc(c34)C2=O)nc1C` the Potency was inconclusive: 0.0366 µM [inhibitor, full curve, poor fit]. With `O=C(NC(=S)Nc1ccccc1OC(F)F)c1ccc2c(c1)OCO2` the Potency was inconclusive: 35.5 µM [inhibitor, single point]. With `O=C(CSc1nc(-c2ccccc2)cs1)Nc1cccc([N+](=O)[O-])c1` the Potency was inconclusive: 15.8 µM [inhibitor, partial curve, poor fit]. In the case of `COC(=O)c1cc(NC(=O)c2nn(C)c3c2CSc2ccccc2-3)cc(C(=O)OC)c1`, the Potency is reported as inconclusive: 5.62 µM [inhibitor, partial curve, poor fit]. For `Cc1ccc(Cl)cc1N1CCN(C(=O)C2CCN(S(=O)(=O)c3cccc4nonc34)CC2)CC1`, the Potency was inconclusive: 22.4 µM [inhibitor, partial curve, poor fit]. For `CC(/C=N\NC(=O)c1ccc(C)nc1)=C\c1ccccc1`, the Potency was “inactive”. In the case of `CCOc1ccc(N(CCC#N)S(=O)(=O)c2ccc(OC)cc2)cc1`, the Potency is reported as inconclusive: 8.2 µM [inhibitor, partial curve, poor fit]. In the case of `CCC(NC(=O)c1cc(COc2cncc(Cl)c2)on1)c1ccc(C)cc1` (configuration not stated), the Potency is reported as inconclusive: 17.8 µM [inhibitor, partial curve, poor fit]. In the case of `CCOC(=O)c1ccccc1NC(=O)Cn1cnc2c(oc3ccccc32)c1=O`, the Potency is reported as “inactive”. With `Cn1cnc([N+](=O)[O-])c1Sc1nc(N)nc2c1ncn2C1CC(O)C(CO)O1` (configuration not stated) the Potency was inconclusive: 2.24 µM [inhibitor, full curve, poor fit]. With `Cc1ccc(C2=CC(c3cccs3)n3nnnc3N2)cc1` (configuration not stated) the Potency was “inactive”. With `COc1ccc(NC(=O)Nc2nc3c(s2)CCCC3)cc1` the Potency was “inactive”. In the case of `CC(=O)c1cccc(NC(=O)/C(=C/c2ccncc2)NC(=O)c2ccccc2)c1`, the Potency is reported as “inactive”. In the case of `Cc1ccc(S(=O)(=O)N2CCOCC2)cc1NC(=O)c1cc([N+](=O)[O-])ccc1N1CCOCC1`, the Potency is reported as inconclusive: 35.5 µM [inhibitor, single point]. For `CCCCNC(=O)COCc1cc(-c2ccc3c(c2)OCO3)on1`, the Potency was “inactive”. For `O=C1CCC(C(=O)OCC(=O)N2N=C3/C(=C\c4ccccc4)CCCC3C2c2ccccc2)N1` (configuration not stated), the Potency was inconclusive: 7.08 µM [inhibitor, full curve, poor fit]. With `COc1ccc(N(CC(=O)NC2CCCC2)C(=O)Cn2nnc(-c3ccc(F)cc3)n2)cc1` the Potency was inconclusive: 11.2 µM [inhibitor, single point]. With `CC(C)N(Cc1ccccc1)C(=O)COC(=O)c1cnc(Cl)c(Cl)c1` the Potency was inconclusive: 17.8 µM [inhibitor, partial curve, poor fit]. In the case of `COC(=O)CC/C(O)=C1\C(=O)CC(C)(C)CC1=Nc1ccccc1OC`, the Potency is reported as inconclusive: 35.5 µM [inhibitor, partial curve, poor fit]. In the case of `COC(=O)Nc1ccc(C)c(NC(=O)OC)c1`, the Potency is reported as “inactive”. In the case of `O=C(/C=C/c1ccc([N+](=O)[O-])cc1)NCc1cccs1`, the Potency is reported as inconclusive: 3.55 µM [activator, partial curve, poor fit]. For `NC(=S)n1[nH]c(-c2ccc([N+](=O)[O-])cc2)c(N=Nc2cccc([N+](=O)[O-])c2)c1=O`, the Potency was inconclusive: 11.2 µM [inhibitor, single point]. For `Cc1nn(Cc2ccccc2)c(C)c1NC(=O)CSc1nc2sc3c(c2c(=O)n1C)CCC3`, the Potency was “inactive”. For `CCOc1ccc(NC(=O)c2ccco2)cc1S(=O)(=O)N1CCCC1`, the Potency was inconclusive: 1.26 µM [inhibitor, single point]. In the case of `COc1cc(C=O)ccc1OCC(=O)Nc1ccccc1N1CCOCC1`, the Potency is reported as “inactive”. In the case of `O=C(c1cc(-c2ccncc2)nc2ccccc12)N1CCC2(CC1)OCCO2`, the Potency is reported as inconclusive: 35.5 µM [inhibitor, single point]. For `Cc1cc2ccccc2n1CCNC(=O)c1cc(C(F)(F)F)cc(C(F)(F)F)c1`, the Potency was “inactive”. For `CN[C@]1(C)[C@@H]2CC[C@@H](C2)C1(C)C`, the Potency was inconclusive: 1.83 µM [activator, partial curve, poor fit]. For `Cc1ccccc1CN1CCN(c2ccc(S(=O)(=O)N3CCCC3)cn2)CC1`, the Potency was inconclusive: 15.8 µM [inhibitor, single point]. With `CC(=O)Nc1ccc2c(c1)nc1n2CCN(C2CCCCC2)C1` the Potency was inconclusive: 6.31 µM [activator, partial curve, poor fit]. For `CNS(=O)(=O)c1cc(NC(C)=O)c(C)cc1C`, the Potency was inconclusive: 7.08 µM [activator, partial curve, poor fit]. With `NC(=NCc1ccco1)NC(=O)c1ccc(Cl)cc1` the Potency was “inactive”. For `COc1ccc(-n2nc(C(=O)NCC(=O)N3CCOCC3)c3ccccc3c2=O)c(OC)c1`, the Potency was “inactive”. In the case of `O=C1/C(=C\c2ccc([N+](=O)[O-])cc2)CS(=O)(=O)C/C1=C/c1ccc([N+](=O)[O-])cc1`, the Potency is reported as inconclusive: 3.16 µM [inhibitor, full curve]. For `Brc1ccc(Sc2cnc3ccccc3n2)cc1`, the Potency was “inactive”. For `CCC(=Nc1ccc(OC)cc1OC)c1c(O)n(C)c(=O)n(C)c1=O`, the Potency was inconclusive: 22.4 µM [inhibitor, single point]. With `Cc1ccc(NC(=O)CSc2nc3ccc(NC(=O)c4cccs4)cc3s2)cc1` the Potency was inconclusive: 11.2 µM [activator, single point]. With `CCCCCCCCCCCCCCCCCC(=O)O[C@H](CC(=O)O)C[N+](C)(C)C` the Potency was “inactive”. For `O=C1NCCC/C1=N\Nc1ccc(Br)cc1`, the Potency was inconclusive: 35.5 µM [activator, single point]. For `CCOC(=O)c1cnc2cc(C(F)(F)F)ccc2c1N1CCN(c2cccc(Cl)c2)CC1`, the Potency was “inactive”. For `CCCCC(=O)Oc1ccc2oc(-c3ccc(OC)cc3)cc(=O)c2c1`, the Potency was inconclusive: 1.26 µM [activator, partial curve, poor fit]. With `O=[N+]([O-])c1ccc(NN=Cc2ccco2)nc1` the Potency was inconclusive: 3.55 µM [activator, partial curve, poor fit]. For `Cc1cc(C)c(C)c(S(=O)(=O)Nc2ccccc2C(=O)NN2CCOCC2)c1C`, the Potency was inconclusive: 28.2 µM [inhibitor, single point]. In the case of `Fc1cc(Br)cc(F)c1NC(=S)N1CCOCC1`, the Potency is reported as “inactive”. In the case of `CN(C)c1cccc(C(=O)Nc2nnc(Cc3ccccc3)s2)c1`, the Potency is reported as inconclusive: 35.5 µM [inhibitor, single point]. With `CCOc1cc(C2NC(=O)NC2=O)ccc1O` (configuration not stated) the Potency was “inactive”. For `CC(C)(C)c1ccc(C(=O)NC(=S)NNC(=O)c2cccs2)cc1`, the Potency was inconclusive: 0.708 µM [activator, full curve]. With `COc1ccc(NC(=O)c2ccccn2)cc1OC` the Potency was “inactive”. In the case of `COCCn1c(=O)[nH]c2cc(C(=O)N3CCN(c4cccc(C(F)(F)F)c4)CC3)ccc2c1=O`, the Potency is reported as inconclusive: 35.5 µM [inhibitor, partial curve, poor fit]. With `Cc1ccc(S(=O)(=O)N2CCOCC2)cc1NC(=O)COc1cccc(Oc2ccccc2)c1` the Potency was inconclusive: 17.8 µM [inhibitor, single point].
